# PMC10809841, “Transferrin Is Up-Regulated by Microbes and Acts as a Negative Regulator of Immunity to Induce Intestinal Immunotolerance” (Research, 2024)
# By UniProt entry, the sequences of proteins in these tests, tags left out. Residues count along the entry.
# UniProt P02787, residues 20-698: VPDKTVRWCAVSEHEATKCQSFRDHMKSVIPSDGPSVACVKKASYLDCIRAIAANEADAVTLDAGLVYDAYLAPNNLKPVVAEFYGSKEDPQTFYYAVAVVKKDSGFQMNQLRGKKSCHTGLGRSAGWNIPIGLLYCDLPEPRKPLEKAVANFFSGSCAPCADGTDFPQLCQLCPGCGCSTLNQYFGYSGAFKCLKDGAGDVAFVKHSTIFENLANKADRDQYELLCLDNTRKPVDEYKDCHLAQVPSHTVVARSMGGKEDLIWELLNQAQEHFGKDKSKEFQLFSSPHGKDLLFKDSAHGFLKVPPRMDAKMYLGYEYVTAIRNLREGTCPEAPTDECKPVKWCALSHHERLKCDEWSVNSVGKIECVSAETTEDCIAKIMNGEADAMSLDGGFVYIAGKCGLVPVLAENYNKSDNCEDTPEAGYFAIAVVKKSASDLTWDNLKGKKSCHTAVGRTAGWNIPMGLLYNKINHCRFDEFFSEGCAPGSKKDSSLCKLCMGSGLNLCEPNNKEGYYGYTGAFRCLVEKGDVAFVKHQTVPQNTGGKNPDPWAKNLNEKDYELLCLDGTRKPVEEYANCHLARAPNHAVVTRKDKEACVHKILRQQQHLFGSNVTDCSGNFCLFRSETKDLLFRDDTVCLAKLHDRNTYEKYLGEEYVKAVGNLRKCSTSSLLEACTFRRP
# Target: transferrin (in human PBMCs and primary macrophages) (human (in PBMCs and primary macrophages)) (UniProt P02787)
# Test: affinity purification with mass spectrometry; mass spectrometry-based coimmunoprecipitation to screen targets of transferrin in human PBMCs
binder,measurement,value
"cluster of differentiation 14 (CD14) (receptor, UniProt P08571 20-345, looked up, CD14, TLR coreceptor; isolated protein used in SPR and native gel; Probably a soluble recombinant CD14; also called WT-CD14; wild-type CD14) TTPEPCELDDEDFRCVCNFSEPQPDWSEAFQCVSAVEVEIHAGGLNLEPFLKRVDADADPRQYADTVKALRVRRLTVGAAQVPAQLLVGALRVLAYSRLKELTLEDLKITGTMPPLPLEATGLALSSLRLRNVSWATGRSWLAELQQWLKPGLKVLSIAQAHSPAFSCEQVRAFPALTSLDLSDNPGLGERGLMAALCPHKFPAIQNLALRNTGMETPTGVCAALAAAGVQPHSLDLSHNSLRATVNPSAPRCMWSSALNSLNLSFAGLEQVPKGLPAKLRVLDLSCNRLNRAPQPDELPEVDNLTLDGNPFLVPGTALPHEGSMN",binding,binds

# No constants are given. Whether binding was seen depends on the method and setting. In cells and extracts the contact can be indirect. These calls come from enrichment with a bait or labelling near it, and not all partners need be listed.
